The text below walks through data of paper PMC3646995.

Amino acid sequences for entries named in this document (tags omitted).
UniProt Q14839: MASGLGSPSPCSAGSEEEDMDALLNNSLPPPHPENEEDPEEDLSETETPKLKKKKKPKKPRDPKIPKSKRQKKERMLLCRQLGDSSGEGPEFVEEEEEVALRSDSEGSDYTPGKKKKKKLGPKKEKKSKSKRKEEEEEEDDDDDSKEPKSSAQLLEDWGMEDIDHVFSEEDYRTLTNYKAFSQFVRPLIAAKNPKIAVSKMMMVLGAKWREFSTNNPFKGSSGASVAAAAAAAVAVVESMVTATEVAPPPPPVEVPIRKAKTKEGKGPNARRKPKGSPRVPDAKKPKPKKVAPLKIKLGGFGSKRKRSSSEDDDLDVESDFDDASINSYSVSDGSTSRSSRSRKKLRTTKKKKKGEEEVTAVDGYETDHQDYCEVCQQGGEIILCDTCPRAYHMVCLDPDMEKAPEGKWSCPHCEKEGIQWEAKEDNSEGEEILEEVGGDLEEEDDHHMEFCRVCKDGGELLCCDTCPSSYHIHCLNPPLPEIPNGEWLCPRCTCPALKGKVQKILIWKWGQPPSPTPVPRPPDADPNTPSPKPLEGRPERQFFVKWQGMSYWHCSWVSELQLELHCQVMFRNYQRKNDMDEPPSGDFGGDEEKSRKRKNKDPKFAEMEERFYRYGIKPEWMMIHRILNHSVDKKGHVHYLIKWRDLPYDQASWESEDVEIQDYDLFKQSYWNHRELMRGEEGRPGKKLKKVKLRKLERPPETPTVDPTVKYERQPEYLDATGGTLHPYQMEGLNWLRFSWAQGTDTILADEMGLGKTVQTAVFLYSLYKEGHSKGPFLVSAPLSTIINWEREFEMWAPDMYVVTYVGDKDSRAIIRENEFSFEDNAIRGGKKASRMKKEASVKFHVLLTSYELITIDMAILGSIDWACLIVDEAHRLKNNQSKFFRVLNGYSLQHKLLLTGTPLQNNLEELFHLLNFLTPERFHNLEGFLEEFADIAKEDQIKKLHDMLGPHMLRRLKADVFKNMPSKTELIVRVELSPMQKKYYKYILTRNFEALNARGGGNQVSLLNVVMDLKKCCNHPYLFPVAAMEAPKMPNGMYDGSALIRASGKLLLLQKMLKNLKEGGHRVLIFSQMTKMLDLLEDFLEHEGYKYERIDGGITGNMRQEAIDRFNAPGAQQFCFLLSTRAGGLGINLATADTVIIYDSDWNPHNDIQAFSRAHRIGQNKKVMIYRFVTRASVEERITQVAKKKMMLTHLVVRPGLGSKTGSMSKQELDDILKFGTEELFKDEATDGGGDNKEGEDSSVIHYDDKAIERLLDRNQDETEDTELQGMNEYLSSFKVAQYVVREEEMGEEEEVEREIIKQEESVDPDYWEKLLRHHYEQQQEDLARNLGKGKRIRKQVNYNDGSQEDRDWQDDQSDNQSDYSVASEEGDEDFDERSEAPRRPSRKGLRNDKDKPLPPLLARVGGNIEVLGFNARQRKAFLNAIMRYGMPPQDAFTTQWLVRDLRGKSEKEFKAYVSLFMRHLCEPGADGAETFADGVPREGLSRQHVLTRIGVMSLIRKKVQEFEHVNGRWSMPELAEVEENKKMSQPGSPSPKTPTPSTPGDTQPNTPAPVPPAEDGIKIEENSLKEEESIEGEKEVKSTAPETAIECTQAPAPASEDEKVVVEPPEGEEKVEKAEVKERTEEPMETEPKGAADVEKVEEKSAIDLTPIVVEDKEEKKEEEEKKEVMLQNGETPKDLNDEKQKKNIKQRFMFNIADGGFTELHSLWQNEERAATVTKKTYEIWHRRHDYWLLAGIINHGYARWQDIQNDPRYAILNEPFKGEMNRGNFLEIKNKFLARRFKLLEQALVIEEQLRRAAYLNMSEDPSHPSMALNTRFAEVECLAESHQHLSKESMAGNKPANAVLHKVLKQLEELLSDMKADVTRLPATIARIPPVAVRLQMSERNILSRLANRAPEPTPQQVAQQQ
UniProt O60264: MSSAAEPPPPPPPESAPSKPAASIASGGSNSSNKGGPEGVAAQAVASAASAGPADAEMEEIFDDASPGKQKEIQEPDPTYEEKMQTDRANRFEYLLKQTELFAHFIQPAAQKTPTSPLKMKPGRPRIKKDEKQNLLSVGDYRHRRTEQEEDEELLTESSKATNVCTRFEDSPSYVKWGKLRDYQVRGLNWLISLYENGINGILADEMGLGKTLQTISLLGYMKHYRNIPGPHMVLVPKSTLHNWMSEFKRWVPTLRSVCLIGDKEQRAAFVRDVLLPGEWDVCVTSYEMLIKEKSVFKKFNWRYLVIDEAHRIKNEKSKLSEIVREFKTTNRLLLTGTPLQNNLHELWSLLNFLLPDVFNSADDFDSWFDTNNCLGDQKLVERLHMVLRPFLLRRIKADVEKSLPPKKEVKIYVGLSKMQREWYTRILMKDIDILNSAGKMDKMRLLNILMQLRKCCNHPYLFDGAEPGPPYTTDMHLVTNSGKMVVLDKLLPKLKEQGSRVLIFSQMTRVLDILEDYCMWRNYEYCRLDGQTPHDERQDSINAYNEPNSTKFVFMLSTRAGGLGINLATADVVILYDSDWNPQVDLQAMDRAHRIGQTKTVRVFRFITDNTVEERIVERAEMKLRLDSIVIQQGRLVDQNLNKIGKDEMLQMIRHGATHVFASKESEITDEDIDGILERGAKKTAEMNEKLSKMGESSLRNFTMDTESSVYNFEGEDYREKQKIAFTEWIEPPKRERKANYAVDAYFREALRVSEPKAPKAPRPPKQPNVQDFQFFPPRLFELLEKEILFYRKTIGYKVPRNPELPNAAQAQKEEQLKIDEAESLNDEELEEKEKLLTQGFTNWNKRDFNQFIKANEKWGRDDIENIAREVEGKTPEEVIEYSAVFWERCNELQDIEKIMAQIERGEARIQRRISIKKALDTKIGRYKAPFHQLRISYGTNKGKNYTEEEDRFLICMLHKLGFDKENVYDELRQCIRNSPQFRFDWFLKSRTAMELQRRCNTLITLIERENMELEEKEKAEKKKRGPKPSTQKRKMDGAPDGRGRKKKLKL
UniProt P25440: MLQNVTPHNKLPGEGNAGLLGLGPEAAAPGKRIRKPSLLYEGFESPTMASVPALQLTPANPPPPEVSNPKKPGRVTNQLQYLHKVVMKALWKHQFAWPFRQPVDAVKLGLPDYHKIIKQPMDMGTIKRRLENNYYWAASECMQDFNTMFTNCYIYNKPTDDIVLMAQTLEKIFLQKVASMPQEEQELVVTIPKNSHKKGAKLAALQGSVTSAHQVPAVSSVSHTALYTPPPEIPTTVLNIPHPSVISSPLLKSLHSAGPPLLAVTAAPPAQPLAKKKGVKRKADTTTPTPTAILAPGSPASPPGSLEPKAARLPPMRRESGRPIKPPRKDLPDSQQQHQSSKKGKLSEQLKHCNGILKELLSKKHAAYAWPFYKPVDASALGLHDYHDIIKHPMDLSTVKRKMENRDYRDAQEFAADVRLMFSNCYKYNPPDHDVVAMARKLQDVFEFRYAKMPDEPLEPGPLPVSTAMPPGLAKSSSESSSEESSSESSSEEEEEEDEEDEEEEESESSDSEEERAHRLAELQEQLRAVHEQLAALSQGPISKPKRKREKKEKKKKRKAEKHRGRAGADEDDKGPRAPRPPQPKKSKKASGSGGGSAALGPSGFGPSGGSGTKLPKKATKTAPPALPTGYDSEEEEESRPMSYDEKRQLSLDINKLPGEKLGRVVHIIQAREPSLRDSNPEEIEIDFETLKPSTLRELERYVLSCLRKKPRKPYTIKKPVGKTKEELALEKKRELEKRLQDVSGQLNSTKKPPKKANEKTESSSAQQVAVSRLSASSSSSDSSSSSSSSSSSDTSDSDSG
UniProt Q09472: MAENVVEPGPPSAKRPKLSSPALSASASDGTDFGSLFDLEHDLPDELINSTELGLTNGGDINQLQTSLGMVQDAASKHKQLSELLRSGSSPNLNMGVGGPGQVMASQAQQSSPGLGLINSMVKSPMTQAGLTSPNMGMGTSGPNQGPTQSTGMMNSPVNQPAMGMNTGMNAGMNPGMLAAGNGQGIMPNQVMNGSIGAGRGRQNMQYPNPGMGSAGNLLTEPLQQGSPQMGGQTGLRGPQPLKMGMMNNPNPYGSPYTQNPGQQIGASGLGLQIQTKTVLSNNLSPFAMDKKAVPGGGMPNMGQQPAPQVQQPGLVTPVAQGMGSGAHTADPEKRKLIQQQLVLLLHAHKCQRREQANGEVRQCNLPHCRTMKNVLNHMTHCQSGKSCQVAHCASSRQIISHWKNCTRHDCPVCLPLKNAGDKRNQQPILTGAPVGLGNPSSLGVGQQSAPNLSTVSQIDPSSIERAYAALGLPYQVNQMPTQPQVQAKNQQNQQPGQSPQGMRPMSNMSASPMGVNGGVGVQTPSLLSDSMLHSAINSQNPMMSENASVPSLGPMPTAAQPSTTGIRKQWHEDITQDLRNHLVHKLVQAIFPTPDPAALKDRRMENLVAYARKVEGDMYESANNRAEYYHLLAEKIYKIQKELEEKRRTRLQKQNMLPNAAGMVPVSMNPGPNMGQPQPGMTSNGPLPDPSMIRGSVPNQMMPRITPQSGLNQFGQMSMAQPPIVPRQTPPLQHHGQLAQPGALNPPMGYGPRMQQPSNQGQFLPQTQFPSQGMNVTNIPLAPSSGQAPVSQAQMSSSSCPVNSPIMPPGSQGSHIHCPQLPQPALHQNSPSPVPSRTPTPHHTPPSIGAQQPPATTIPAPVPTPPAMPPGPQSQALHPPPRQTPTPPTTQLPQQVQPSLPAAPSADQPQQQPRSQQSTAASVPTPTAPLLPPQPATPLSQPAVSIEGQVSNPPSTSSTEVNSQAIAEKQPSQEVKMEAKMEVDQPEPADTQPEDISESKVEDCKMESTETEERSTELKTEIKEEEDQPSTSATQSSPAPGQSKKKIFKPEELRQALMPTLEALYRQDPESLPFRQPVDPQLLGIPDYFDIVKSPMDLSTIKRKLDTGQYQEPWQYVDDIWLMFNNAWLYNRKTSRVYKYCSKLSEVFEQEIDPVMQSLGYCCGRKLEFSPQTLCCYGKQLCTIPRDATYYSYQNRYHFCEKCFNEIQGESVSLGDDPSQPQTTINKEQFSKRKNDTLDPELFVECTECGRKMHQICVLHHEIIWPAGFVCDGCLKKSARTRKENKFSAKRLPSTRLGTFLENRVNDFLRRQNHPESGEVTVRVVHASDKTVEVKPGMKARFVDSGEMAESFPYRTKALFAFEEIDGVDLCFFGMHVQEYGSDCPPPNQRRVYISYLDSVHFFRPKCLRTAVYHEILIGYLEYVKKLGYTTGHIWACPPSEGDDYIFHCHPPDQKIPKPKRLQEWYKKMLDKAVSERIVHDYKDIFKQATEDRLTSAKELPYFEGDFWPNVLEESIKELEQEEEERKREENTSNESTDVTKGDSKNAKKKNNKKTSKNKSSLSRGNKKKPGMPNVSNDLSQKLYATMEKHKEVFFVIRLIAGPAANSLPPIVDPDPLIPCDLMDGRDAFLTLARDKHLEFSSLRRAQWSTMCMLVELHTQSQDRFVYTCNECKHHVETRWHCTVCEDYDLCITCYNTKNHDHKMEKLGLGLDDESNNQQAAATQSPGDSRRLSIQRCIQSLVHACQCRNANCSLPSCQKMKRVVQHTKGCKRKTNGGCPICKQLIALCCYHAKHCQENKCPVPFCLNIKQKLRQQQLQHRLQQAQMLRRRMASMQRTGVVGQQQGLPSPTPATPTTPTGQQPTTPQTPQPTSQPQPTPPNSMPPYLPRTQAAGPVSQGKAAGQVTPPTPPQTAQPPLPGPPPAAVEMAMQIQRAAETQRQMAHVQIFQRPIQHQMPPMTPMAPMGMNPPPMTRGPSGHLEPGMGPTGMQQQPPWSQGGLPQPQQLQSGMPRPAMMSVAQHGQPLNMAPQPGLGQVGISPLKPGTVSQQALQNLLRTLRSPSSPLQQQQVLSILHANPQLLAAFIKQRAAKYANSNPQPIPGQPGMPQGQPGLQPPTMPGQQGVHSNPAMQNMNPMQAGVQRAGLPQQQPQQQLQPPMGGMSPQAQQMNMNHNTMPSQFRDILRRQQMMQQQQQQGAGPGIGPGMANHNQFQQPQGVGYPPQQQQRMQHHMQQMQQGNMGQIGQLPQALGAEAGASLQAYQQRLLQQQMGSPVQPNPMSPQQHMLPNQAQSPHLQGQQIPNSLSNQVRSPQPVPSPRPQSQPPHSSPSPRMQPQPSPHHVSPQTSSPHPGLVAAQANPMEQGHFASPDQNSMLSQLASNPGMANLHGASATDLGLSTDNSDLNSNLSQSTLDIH

Results are given in words; binding and its absence hold for the method and conditions named. For part of these data: Binding can be weak; no strength is given.

Assay in all cases: recruitment to a LacO array by a LacR fusion (confocal fluorescence microscopy); A03-1 cells (256xLacO arrays) co-transfected with an mCherry-LacR fusion, held on the array, and a GFP- or YFP-tagged protein; green fluorescence overlapping with the red array scored; more than 20 cells in each combination, three independent experiments
Test [1] concerns the target mCherry-LacR-baEBNA1 (p3xFLAG-CMV10.0-mCherry-LacR-baEBNA1) (Cercopithecine herpesvirus 12 (Herpesvirus papio)) (UniProt Q80890).
The target of test [2] is mCherry-LacR-mnR2-LANA (p3xFLAG-CMV10-mCherry-LacR-mnR2-LANA1) (Macaca nemestrina rhadinovirus 2) (UniProt A1XYW0).
Test [3] deals with mCherry-LacR-muLANA (p3xFLAG-CMV10-mCherry-LacR-muLANA1) (Murid herpesvirus 4 (MHV68)) (UniProt O41974).
Test [4] has as its target mCherry-LacR-saLANA (p3xFLAG-mCherry-LacR-saLANA1) (Saimirine herpesvirus 2 (Herpesvirus saimiri)) (UniProt Q80AG4).

As for GFP-CHD4 (from UniProt Q14839 1-1912), the binding entry in test [1], in test [2], in test [3] and in test [4] was “no binding” in each case.
As to SNF2H-GFP (from UniProt O60264 1-1052), the binding entry in test [1], in test [2], in test [3] and in test [4] was “no binding” each time.
In the case of YFP-BRG1 (from UniProt P51532 1-1647), the binding entry in test [1], in test [2], in test [3] and in test [4] was “no binding” throughout.
As to “YFP-tagged BRD2 (from UniProt P25440 1-801)”, the binding entry was “no binding” in test [1], “binds” in test [2], “binds” in test [3] and “binds” in test [4].
Take “YFP-tagged GCN5 (from UniProt Q92830 1-837)”: the binding result in test [1], in test [2], in test [3] and in test [4] was “no binding” each time.
For “YFP-tagged p300 (from UniProt Q09472 1-2414)”, the binding entry in test [1], in test [2], in test [3] and in test [4] was “no binding” in each case.
On to “YFP-tagged pCAF (from UniProt Q92831 1-832)”, for which the binding entry in test [1], in test [3] and in test [4] was “no binding” each time.
